Data reported in patent publication US7842293B2, “Compositions and methods using anti-CS1 antibodies to treat multiple myeloma” (Facet Biotech Corporation, priority 2006, dated 2010).
For at least one compound, name, drawing or mass did not settle the structure.

System: CS1
Test: CS1 protein expression on OPM2 multiple myeloma cell line (flow cytometry)
Assay type: cell-based
Method: The effect of HuLuc63 and Dex treatment on the expression of CS1 in MM cell lines and mouse xenograft tumors was examined by flow cytometry and immunohistochemistry respectively.
CS1 protein expression was examined on the OPM2 multiple myeloma cell line. […] The combination of HuLuc63 with Dex was tested for anti-myeloma activity in vivo. OPM2 tumor-bearing mice were treated with sub-optimal doses of HuLuc63 (1 mg/kg), or isotype control antibody twice weekly for three weeks. Dex was given twice a week at 10 mg/kg to mice receiving either isotype control antibody or HuLuc63.

C[C@@H]1C[C@H]2[C@@H]3CCC4=CC(=O)C=C[C@]4(C)[C@@]3(F)[C@@H](O)C[C@]2(C)[C@@]1(O)C(=O)CO [Dex, Dexamethasone, reference compound]
change in CS1 expression pre- or post-treatment: No significant change in CS1 expression
